Consider one molecule from publication doi:10.1101/779520.

The target in this test is HA-tagged full-length otoferlin (mCherry-P2A-mOtof-HA) (mouse). Put plainly: pull-down.

These are yes or no findings as the source states them, for the method shown. In cells and extracts the contact can be indirect. Binding calls can cover weak binding; strength is not graded here.

B1: calbindin-D28k (protein, UniProt P12658 1-261)
chain: MAESHLQSSLITASQFFEIWLHFDADGSGYLEGKELQNLIQELLQARKKAGLELSPEMKSFVDQYGQRDDGKIGIVELAHVLPTEENFLLLFRCQQLKSCEEFMKTWRKYDTDHSGFIETEELKNFLKDLLEKANKTVDDTKLAEYTDLMLKLFDSNNDGKLELTEMARLLPVQENFLLKFQGIKMCGKEFNKAFELYDQDGNGYIDENELDALLKDLCEKNKQELDINNITTYKKNIMALSDGGKLYRTDLALILSAGDN
With B1, the binding result is “binds”.
